The list shows a part of the results.
Compound: Cc1cc(ccc1-c1ccccc1)C(=O)N1CCCN(CC1)C(=O)CCl [compound 10]
Assay: probe-labelled cysteine peptide fold change vs DMSO (competition) (log2 fold change); higher = less target engagement (more negative = stronger competition)
Details: THP-1, incubation time: 4 h
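Also: competitive profiling in live THP-1 cells: cysteine peptides tagged with an iodoacetamide desthiobiotin (IA-DTB) probe, intensity after compound treatment relative to DMSO-treated cells.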

| Target | probe-labelled cysteine peptide fold change (10 µM) | probe-labelled cysteine peptide fold change (50 µM) |
| --- | --- | --- |
| BOLA2B_Q9H3K6_59_LVNACLAEELPHIHAFEQK (UniProt Q9H3K6) | -0.0829 | -0.00866 |
| BAZ1A_Q9NRL2_799_IQSAIACTNIFPLGR (UniProt Q9NRL2) | 0.087 | 0.166 |
| BLVRB_P30043_109_VVACTSAFLLWDPTK (UniProt P30043) | 0.133 | 0.519 |
| BMP2K_Q9NSY1_292_NIHCLIR (UniProt Q9NSY1) | -0.151 | 0.143 |
| BIRC6_Q9NR09_1357_TDDGQITEHAQSLVLDTLCWLAGVHSNGPGSSK (UniProt Q9NR09) | 0.242 | 0.176 |
| BABAM2_Q9NXR7_254_IEHALGGSSALHIPAFPGGGCLIDYVPQVCHLLTNK (UniProt Q9NXR7) | 0.0836 | 0.123 |
| AVEN_Q9NQS1_169_EWDSEASCPK (UniProt Q9NQS1) | -0.857 | -2.39 |
| BCAT2_O15382_135_LCLPSFDK (UniProt O15382) | 0.166 | 0.907 |
| BOD1L1_Q8NFC6_1071_RLCENR (UniProt Q8NFC6) | -0.0312 | -0.173 |
| ATXN2_Q99700_852_DSFIENSSSNCTSGSSKPNSPSISPSILSNTEHK (UniProt Q99700) | -0.189 | -0.254 |
| BOP1_Q14137_620_KLMPNCK (UniProt Q14137) | -0.0395 | -0.278 |
| BAHCC1_Q9P281_683_GPGQSERPDCAR (UniProt Q9P281) | -0.0255 | 0.00773 |
| BAZ2A_Q9UIF9_828_KPTEDMCLTDHQPLPDFSR (UniProt Q9UIF9) | -0.178 | -0.00316 |
| BIRC6_Q9NR09_4813+4828_LPCPEGLDPDTDDAPEVCR (UniProt Q9NR09) | -0.126 | 0.236 |
| BCKDK_O14874_222_MLATHHLALHEDKPDFVGIICTR (UniProt O14874) | 0.108 | 0.361 |
| BIRC6_Q9NR09_874_IQHIKDPQDTITSLILLPPDILDNREDDCEEPIEDMQLTSK (UniProt Q9NR09) | -0.303 | 0.602 |
| BIRC6_Q9NR09_1293_GCDLLQEVSVTIR (UniProt Q9NR09) | 0.191 | 0.51 |
| BAZ1A_Q9NRL2_404_EDMECDDLK (UniProt Q9NRL2) | -0.334 | -0.269 |
| AZU1_P20160_149_CQVAGWGSQR (UniProt P20160) | -0.188 | -0.0803 |
| AUP1_Q9Y679_124_VLISNHVTPFDHNIVNLLTTCSTPLLNSPPSFVCWSR (UniProt Q9Y679) | -0.188 | -0.0869 |
| BLM_P54132_1364_GGSATCR (UniProt P54132) | -0.0151 | -0.142 |
| BAZ1A_Q9NRL2_547_SLDLDSCTLSEILR (UniProt Q9NRL2) | -0.00968 | 0.0572 |
| BCLAF1_Q9NYF8_688_LRCDSADLR (UniProt Q9NYF8) | 0.00664 | -0.296 |
| B4GAT1_O43505_159_VAMHLVCPSR (UniProt O43505+B4GAT1) | 0.00493 | 0.0343 |

16 consecutive records already listed:

| Target | probe-labelled cysteine peptide fold change (10 µM) | probe-labelled cysteine peptide fold change (50 µM) |
| --- | --- | --- |
| BMP2K_Q9NSY1_292_NIHCLIR (UniProt Q9NSY1) | -0.151 | 0.143 |
| BIRC6_Q9NR09_1357_TDDGQITEHAQSLVLDTLCWLAGVHSNGPGSSK (UniProt Q9NR09) | 0.242 | 0.176 |
| BABAM2_Q9NXR7_254_IEHALGGSSALHIPAFPGGGCLIDYVPQVCHLLTNK (UniProt Q9NXR7) | 0.0836 | 0.123 |
| AVEN_Q9NQS1_169_EWDSEASCPK (UniProt Q9NQS1) | -0.857 | -2.39 |
| BCAT2_O15382_135_LCLPSFDK (UniProt O15382) | 0.166 | 0.907 |
| BOD1L1_Q8NFC6_1071_RLCENR (UniProt Q8NFC6) | -0.0312 | -0.173 |
| ATXN2_Q99700_852_DSFIENSSSNCTSGSSKPNSPSISPSILSNTEHK (UniProt Q99700) | -0.189 | -0.254 |
| BOP1_Q14137_620_KLMPNCK (UniProt Q14137) | -0.0395 | -0.278 |
| BAHCC1_Q9P281_683_GPGQSERPDCAR (UniProt Q9P281) | -0.0255 | 0.00773 |
| BAZ2A_Q9UIF9_828_KPTEDMCLTDHQPLPDFSR (UniProt Q9UIF9) | -0.178 | -0.00316 |
| BIRC6_Q9NR09_4813+4828_LPCPEGLDPDTDDAPEVCR (UniProt Q9NR09) | -0.126 | 0.236 |
| BCKDK_O14874_222_MLATHHLALHEDKPDFVGIICTR (UniProt O14874) | 0.108 | 0.361 |
| BIRC6_Q9NR09_874_IQHIKDPQDTITSLILLPPDILDNREDDCEEPIEDMQLTSK (UniProt Q9NR09) | -0.303 | 0.602 |
| BIRC6_Q9NR09_1293_GCDLLQEVSVTIR (UniProt Q9NR09) | 0.191 | 0.51 |
| BAZ1A_Q9NRL2_404_EDMECDDLK (UniProt Q9NRL2) | -0.334 | -0.269 |
| AZU1_P20160_149_CQVAGWGSQR (UniProt P20160) | -0.188 | -0.0803 |

Further records:

| Target | probe-labelled cysteine peptide fold change (10 µM) | probe-labelled cysteine peptide fold change (50 µM) |
| --- | --- | --- |
| BPNT1_O95861_206_LVTDCVAAMNPDAVLR (UniProt O95861) | -0.0424 | 0.0172 |
| BLOC1S6_Q9UL45_95_ECHSMLDINALFAEAK (UniProt Q9UL45) | 0.0555 | -0.138 |
| ATXN10_Q9UBB4_95_NACIECSVNQNSIR (UniProt Q9UBB4) | 0.233 | 0.166 |
| AZU1_P20160_207+222_RGGICNGDGGTPLVCEGLAHGVASFSLGPCGR (UniProt P20160) | 0.523 | 0.564 |
| BAG6_P46379_856_TNLEFLQEQFNSIAAHVLHCTDSGFGAR (UniProt P46379) | 0.0826 | 0.0332 |
| BORCS6_Q96GS4_356_TLEVLEALCK (UniProt Q96GS4) | 0.114 | 0.189 |
| BAZ2A_Q9UIF9_795_AKPACK (UniProt Q9UIF9) | -0.144 | -0.471 |
| BPTF_Q12830_506_VQLAELIDCLDK (UniProt Q12830) | 0.0717 | 0.151 |
| BANF1_O75531_80_DCFGCLR (UniProt O75531) | 0.231 | -0.00332 |
| BAIAP2_Q9UQB8_195_FCFLVEK (UniProt Q9UQB8) | -0.193 | -0.118 |
| BDH2_Q9BUT1_145_CVYSTTK (UniProt Q9BUT1) | -0.332 | -0.235 |
| BABAM1_Q9NWV8_294_YEVALAGPALELHNCMAK (UniProt Q9NWV8) | 0.177 | 0.145 |
| AZU1_P20160_52_HFCGGALIHAR (UniProt P20160) | -0.267 | -0.0232 |
| B4GALT3_O60512_209_EALRDEEWDCLFLHDVDLLPENDHNLYVCDPR (UniProt O60512) | -0.204 | 0.195 |
| BAZ1B_Q9UIG0_120_YAVGEECDFEVGK (UniProt Q9UIG0) | -0.106 | 0.0768 |
| ATXN7_O15265_347_EFDPDIHCGVIDLDTK (UniProt O15265) | 0.0912 | 0.239 |
| BCAR3_O75815_408_GSDSQLCPKPPPKPCK (UniProt O75815) | -0.265 | -0.992 |
| BAZ1A_Q9NRL2_105_LHEICDDIFAYVK (UniProt Q9NRL2) | 0.0565 | 0.118 |
| BAG3_O95817_151_QCGQVAAAAAAQPPASHGPER (UniProt O95817) | 0.136 | 0.416 |
| BAG5_Q9UL15_157_ICAVQEIIEDCMK (UniProt Q9UL15) | -0.0116 | 0.0188 |
| BRAP_Q7Z569_519_ETCDQK (UniProt Q7Z569) | -0.0471 | -0.166 |
| BABAM2_Q9NXR7_245+254_IEHALGGSSALHIPAFPGGGCLIDYVPQVCHLLTNK (UniProt Q9NXR7) | 0.00719 | 0.273 |
| BAZ1A_Q9NRL2_764_QEQINCVTREPLTADEEEALKQEHQR (UniProt Q9NRL2) | -0.206 | -1.01 |
| BANF1_O75531_77_DCFGCLR (UniProt O75531) | 0.167 | -0.0799 |

| Target | probe-labelled cysteine peptide fold change (10 µM) | probe-labelled cysteine peptide fold change (50 µM) |
| --- | --- | --- |
| BCKDK_O14874_152_DQADEAQYCQLVR (UniProt O14874) | -0.0953 | -0.00515 |
| BOD1L1_Q8NFC6_2164_CAESLQPVAAAVEER (UniProt Q8NFC6) | -0.567 | -0.0846 |
| B4GALT1_P15291_172_DCVSPHK (UniProt P15291) | -0.221 | -0.0203 |
| BCOR_Q6W2J9_1044_DSEMCK (UniProt Q6W2J9) | -0.557 | -0.526 |
| B2M_P61769_100_DEYACR (UniProt P61769) | -0.108 | 0.439 |
| BAZ1A_Q9NRL2_764_QEQINCVTR (UniProt Q9NRL2) | 0.0365 | 0.135 |
| BIRC6_Q9NR09_2067_HLCISGTPK (UniProt Q9NR09) | 0.0557 | 0.28 |
| BAZ1A_Q9NRL2_893+898_WCFYSSCEQLDQLIEALNSR (UniProt Q9NRL2) | -0.092 | -0.295 |
| BAG5_Q9UL15_360_LFACEEHPSHK (UniProt Q9UL15) | -0.0428 | -0.59 |
| BCAT1_P54687_293_CILDLAHQWGEFK (UniProt P54687) | 0.0141 | -0.125 |
| BICD2_Q8TD16_544_KVSDVAGETQGSLSVAQDELVTFSEELANLYHHVCMCNNETPNR (UniProt Q8TD16) | -0.109 | -0.708 |
| ATXN10_Q9UBB4_382_LIGNLCYK (UniProt Q9UBB4) | 0.088 | 0.11 |
| BLVRA_P53004_204_MTVCLETEKK (UniProt P53004) | 0.15 | -0.376 |
| BAHD1_Q8TBE0_598_TNGWVPVGAACEK (UniProt Q8TBE0) | 0.00869 | 0.181 |
| BRAP_Q7Z569_47_TTLASAVACLEGK (UniProt Q7Z569) | -0.252 | -0.245 |
| BAZ1A_Q9NRL2_537_SALSAVASLAAAWPQLHQGCSLK (UniProt Q9NRL2) | -0.118 | -0.147 |
| BIN2_Q9UBW5_205_IGCYVTIFQNISNLR (UniProt Q9UBW5) | -0.0758 | 0.512 |
| BIRC2_Q13490_315_CWESGDDPWVEHAK (UniProt Q13490) | -0.0327 | -0.0477 |
| BLM_P54132_799_FVIDEAHCVSQWGHDFR (UniProt P54132) | 0.0276 | 0.0804 |
| BAZ1B_Q9UIG0_497_SALSCVISK (UniProt Q9UIG0) | -0.339 | -0.393 |
| BPGM_P07738_23_FCSWVDQK (UniProt P07738) | -0.262 | -0.0213 |
| BLVRA_P53004_204_MTVCLETEK (UniProt P53004) | 0.145 | 0.0167 |
